{"source": "PubChem BioAssay AID652272, Drosophila RNAi Screening Center, 2013", "aim": "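Genome-wide knock-down search for components of Hedgehog signalling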 (primary screen)", "cell system": "Drosophila clone 8 (Cl8) cells", "knock-down reagent": "long dsRNA against Drosophila genes", "measurement": "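Plate reader light from a firefly reporter under a ptc promoter fragment that responds to Hedgehog, with Renilla light as transfection reference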", "scale": "firefly Hh reporter signal: higher = more ptc reporter light; Renilla reference signal: higher = more Renilla control light", "rule for the call": "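Called a hit if the two-replicate mean z-score lies below -2 or above +3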", "meaning of the calls": "active = hit: reporter lowered or raised; inactive = not a hit", "note": "In all, the deposit lists about 21,000 reagents; shown is an unselected part of those that have a named target and a result. In the full data, 503 (2.4%) were called active. 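Raw plate light values, not normalised; calls rest on replicate z-scores that were not deposited; hits include reporter decreases as well as increases.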 Not stated in the record: the amount of reagent, the time to read-out."}
{"target": "msb1l", "dsRNA": "DRSC03572", "firefly Hh reporter signal, replicate 1": 78822, "firefly Hh reporter signal, replicate 2": 74512, "Renilla reference signal, replicate 1": 3450, "Renilla reference signal, replicate 2": 3016, "Outcome": "inactive"}
{"target": "Ance-3", "dsRNA": "DRSC02648", "firefly Hh reporter signal, replicate 1": 1.94e5, "firefly Hh reporter signal, replicate 2": 73001, "Renilla reference signal, replicate 1": 4909, "Renilla reference signal, replicate 2": 6155, "Outcome": "inactive"}
{"target": "Ance-3", "dsRNA": "DRSC02649", "firefly Hh reporter signal, replicate 1": 1.09e5, "firefly Hh reporter signal, replicate 2": 59053, "Renilla reference signal, replicate 1": 2938, "Renilla reference signal, replicate 2": 5373, "Outcome": "inactive"}
{"target": "lig", "dsRNA": "DRSC07246", "firefly Hh reporter signal, replicate 1": 48144, "firefly Hh reporter signal, replicate 2": 45664, "Renilla reference signal, replicate 1": 3497, "Renilla reference signal, replicate 2": 2432, "Outcome": "inactive"}
{"target": "lig", "dsRNA": "DRSC07247", "firefly Hh reporter signal, replicate 1": 72620, "firefly Hh reporter signal, replicate 2": 32280, "Renilla reference signal, replicate 1": 2484, "Renilla reference signal, replicate 2": 3676, "Outcome": "inactive"}
{"target": "Ctl1", "dsRNA": "DRSC08303", "firefly Hh reporter signal, replicate 1": 84930, "firefly Hh reporter signal, replicate 2": 36967, "Renilla reference signal, replicate 1": 1904, "Renilla reference signal, replicate 2": 372, "Outcome": "inactive"}
{"target": "Ate1", "dsRNA": "DRSC05925", "firefly Hh reporter signal, replicate 1": 1.50e5, "firefly Hh reporter signal, replicate 2": 1.11e5, "Renilla reference signal, replicate 1": 6818, "Renilla reference signal, replicate 2": 4482, "Outcome": "inactive"}
{"target": "Gpat4", "dsRNA": "DRSC04345", "firefly Hh reporter signal, replicate 1": 1.39e5, "firefly Hh reporter signal, replicate 2": 71473, "Renilla reference signal, replicate 1": 4763, "Renilla reference signal, replicate 2": 3254, "Outcome": "inactive"}
{"target": "TwdlG", "dsRNA": "DRSC12229", "firefly Hh reporter signal, replicate 1": 1.12e5, "firefly Hh reporter signal, replicate 2": 1.54e5, "Renilla reference signal, replicate 1": 4157, "Renilla reference signal, replicate 2": 29442, "Outcome": "inactive"}
{"target": "Ntan1", "dsRNA": "DRSC07546", "firefly Hh reporter signal, replicate 1": 1.12e5, "firefly Hh reporter signal, replicate 2": 70675, "Renilla reference signal, replicate 1": 3049, "Renilla reference signal, replicate 2": 4886, "Outcome": "inactive"}

2 entries from above in another layout.
target	dsRNA	firefly Hh reporter signal, replicate 1	firefly Hh reporter signal, replicate 2	Renilla reference signal, replicate 1	Renilla reference signal, replicate 2	Outcome
Ctl1	DRSC08303	84930	36967	1904	372	inactive
Ate1	DRSC05925	1.50e5	1.11e5	6818	4482	inactive

The list goes on:
{"target": "CG13965", "dsRNA": "DRSC02307", "firefly Hh reporter signal, replicate 1": 73393, "firefly Hh reporter signal, replicate 2": 58811, "Renilla reference signal, replicate 1": 1873, "Renilla reference signal, replicate 2": 6125, "Outcome": "inactive"}
{"target": "GatB", "dsRNA": "DRSC15807", "firefly Hh reporter signal, replicate 1": 4.71e5, "firefly Hh reporter signal, replicate 2": 98316, "Renilla reference signal, replicate 1": 24423, "Renilla reference signal, replicate 2": 2969, "Outcome": "inactive"}
{"target": "tty", "dsRNA": "DRSC20588", "firefly Hh reporter signal, replicate 1": 1.38e5, "firefly Hh reporter signal, replicate 2": 1.23e5, "Renilla reference signal, replicate 1": 3339, "Renilla reference signal, replicate 2": 3162, "Outcome": "inactive"}
{"target": "CG15040", "dsRNA": "DRSC19616", "firefly Hh reporter signal, replicate 1": 5.71e5, "firefly Hh reporter signal, replicate 2": 1.22e5, "Renilla reference signal, replicate 1": 4253, "Renilla reference signal, replicate 2": 4253, "Outcome": "inactive"}
{"target": "scra", "dsRNA": "DRSC07679", "firefly Hh reporter signal, replicate 1": 66682, "firefly Hh reporter signal, replicate 2": 45808, "Renilla reference signal, replicate 1": 2823, "Renilla reference signal, replicate 2": 1640, "Outcome": "inactive"}
{"target": "Nnk", "dsRNA": "DRSC15274", "firefly Hh reporter signal, replicate 1": 5.13e5, "firefly Hh reporter signal, replicate 2": 95104, "Renilla reference signal, replicate 1": 30468, "Renilla reference signal, replicate 2": 2588, "Outcome": "inactive"}
{"target": "frma", "dsRNA": "DRSC18297", "firefly Hh reporter signal, replicate 1": 82776, "firefly Hh reporter signal, replicate 2": 63800, "Renilla reference signal, replicate 1": 2114, "Renilla reference signal, replicate 2": 1495, "Outcome": "inactive"}
{"target": "CG5347", "dsRNA": "DRSC19942", "firefly Hh reporter signal, replicate 1": 1.36e5, "firefly Hh reporter signal, replicate 2": 2.86e5, "Renilla reference signal, replicate 1": 4187, "Renilla reference signal, replicate 2": 11237, "Outcome": "inactive"}
{"target": "tyn", "dsRNA": "DRSC20652", "firefly Hh reporter signal, replicate 1": 65849, "firefly Hh reporter signal, replicate 2": 2.60e5, "Renilla reference signal, replicate 1": 2327, "Renilla reference signal, replicate 2": 11664, "Outcome": "inactive"}
{"target": "CG1227", "dsRNA": "DRSC12534", "firefly Hh reporter signal, replicate 1": 94112, "firefly Hh reporter signal, replicate 2": 69922, "Renilla reference signal, replicate 1": 3368, "Renilla reference signal, replicate 2": 2209, "Outcome": "inactive"}
{"target": "CG3803", "dsRNA": "DRSC04420", "firefly Hh reporter signal, replicate 1": 92052, "firefly Hh reporter signal, replicate 2": 51108, "Renilla reference signal, replicate 1": 2533, "Renilla reference signal, replicate 2": 4105, "Outcome": "inactive"}
{"target": "qua", "dsRNA": "DRSC03598", "firefly Hh reporter signal, replicate 1": 1.11e5, "firefly Hh reporter signal, replicate 2": 52833, "Renilla reference signal, replicate 1": 3220, "Renilla reference signal, replicate 2": 5280, "Outcome": "inactive"}
{"target": "CG31102", "dsRNA": "DRSC14260", "firefly Hh reporter signal, replicate 1": 7.42e5, "firefly Hh reporter signal, replicate 2": 1.95e5, "Renilla reference signal, replicate 1": 36359, "Renilla reference signal, replicate 2": 5794, "Outcome": "inactive"}
{"target": "CG9297", "dsRNA": "DRSC16469", "firefly Hh reporter signal, replicate 1": 1.11e5, "firefly Hh reporter signal, replicate 2": 1.32e5, "Renilla reference signal, replicate 1": 5629, "Renilla reference signal, replicate 2": 5145, "Outcome": "inactive"}
{"target": "Pde6", "dsRNA": "DRSC16401", "firefly Hh reporter signal, replicate 1": 1.08e5, "firefly Hh reporter signal, replicate 2": 1.05e5, "Renilla reference signal, replicate 1": 4150, "Renilla reference signal, replicate 2": 4049, "Outcome": "inactive"}
{"target": "Pde6", "dsRNA": "DRSC16402", "firefly Hh reporter signal, replicate 1": 76129, "firefly Hh reporter signal, replicate 2": 69812, "Renilla reference signal, replicate 1": 2507, "Renilla reference signal, replicate 2": 1943, "Outcome": "inactive"}
{"target": "Pde6", "dsRNA": "DRSC16403", "firefly Hh reporter signal, replicate 1": 59008, "firefly Hh reporter signal, replicate 2": 96234, "Renilla reference signal, replicate 1": 2151, "Renilla reference signal, replicate 2": 2309, "Outcome": "inactive"}
